These results are taken from patent publication US5527690.

Chains of the proteins cited; added tags and fusions are not shown. Lines headed by an entry give the natural chain unless they say otherwise; changes in a name come on top. A line that says so, or that is headed by a name, gives the form on record, which may keep a tag or linker.
UniProt P36956: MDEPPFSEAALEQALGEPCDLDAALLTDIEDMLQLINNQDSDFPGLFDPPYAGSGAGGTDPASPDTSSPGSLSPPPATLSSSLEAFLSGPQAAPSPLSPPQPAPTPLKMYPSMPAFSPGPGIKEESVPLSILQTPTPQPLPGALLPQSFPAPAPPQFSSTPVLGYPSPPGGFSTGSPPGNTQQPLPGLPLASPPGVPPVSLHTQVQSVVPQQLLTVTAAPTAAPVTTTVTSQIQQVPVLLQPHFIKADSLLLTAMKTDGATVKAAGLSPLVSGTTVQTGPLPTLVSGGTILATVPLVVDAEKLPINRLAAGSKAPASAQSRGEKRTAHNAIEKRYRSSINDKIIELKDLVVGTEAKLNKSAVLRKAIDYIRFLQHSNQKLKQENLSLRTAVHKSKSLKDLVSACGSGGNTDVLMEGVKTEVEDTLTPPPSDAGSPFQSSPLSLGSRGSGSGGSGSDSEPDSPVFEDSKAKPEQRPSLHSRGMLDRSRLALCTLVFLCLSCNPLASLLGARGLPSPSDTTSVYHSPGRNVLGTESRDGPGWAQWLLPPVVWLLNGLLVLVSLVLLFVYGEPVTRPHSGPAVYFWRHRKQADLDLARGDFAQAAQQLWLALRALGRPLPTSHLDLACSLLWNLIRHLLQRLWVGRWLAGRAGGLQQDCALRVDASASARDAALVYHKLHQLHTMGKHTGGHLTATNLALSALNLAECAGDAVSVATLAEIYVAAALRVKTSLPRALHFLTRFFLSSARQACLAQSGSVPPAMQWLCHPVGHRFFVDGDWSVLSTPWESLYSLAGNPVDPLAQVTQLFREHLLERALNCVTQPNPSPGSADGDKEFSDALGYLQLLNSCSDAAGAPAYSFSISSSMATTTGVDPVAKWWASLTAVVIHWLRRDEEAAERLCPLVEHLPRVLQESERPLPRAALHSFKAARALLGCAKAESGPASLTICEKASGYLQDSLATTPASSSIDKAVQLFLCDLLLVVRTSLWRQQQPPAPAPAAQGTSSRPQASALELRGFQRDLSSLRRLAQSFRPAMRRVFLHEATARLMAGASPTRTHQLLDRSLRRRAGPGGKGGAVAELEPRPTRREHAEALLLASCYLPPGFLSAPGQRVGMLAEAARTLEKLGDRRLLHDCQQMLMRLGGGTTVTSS
SREBP (HeLa, affinity purified, 59-68 kDa cluster of SREBP-1 and SREBP-2) (Homo sapiens), one chain, as listed by the source, chain 1 of 2: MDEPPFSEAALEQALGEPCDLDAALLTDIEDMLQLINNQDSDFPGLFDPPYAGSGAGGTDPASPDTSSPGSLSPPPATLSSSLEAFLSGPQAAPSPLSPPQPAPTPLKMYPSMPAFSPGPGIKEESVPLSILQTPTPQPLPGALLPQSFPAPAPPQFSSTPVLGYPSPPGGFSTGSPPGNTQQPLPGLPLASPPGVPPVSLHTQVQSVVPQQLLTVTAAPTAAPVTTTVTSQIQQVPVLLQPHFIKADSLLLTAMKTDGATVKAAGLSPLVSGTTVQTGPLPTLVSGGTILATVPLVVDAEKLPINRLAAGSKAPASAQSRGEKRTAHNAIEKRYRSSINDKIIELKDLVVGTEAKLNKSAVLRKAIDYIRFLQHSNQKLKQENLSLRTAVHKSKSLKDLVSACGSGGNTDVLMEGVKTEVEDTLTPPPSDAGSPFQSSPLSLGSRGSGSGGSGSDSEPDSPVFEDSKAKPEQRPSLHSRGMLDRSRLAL
SREBP (HeLa, affinity purified, 59-68 kDa cluster of SREBP-1 and SREBP-2) (Homo sapiens), one chain, as listed by the source, chain 2 of 2: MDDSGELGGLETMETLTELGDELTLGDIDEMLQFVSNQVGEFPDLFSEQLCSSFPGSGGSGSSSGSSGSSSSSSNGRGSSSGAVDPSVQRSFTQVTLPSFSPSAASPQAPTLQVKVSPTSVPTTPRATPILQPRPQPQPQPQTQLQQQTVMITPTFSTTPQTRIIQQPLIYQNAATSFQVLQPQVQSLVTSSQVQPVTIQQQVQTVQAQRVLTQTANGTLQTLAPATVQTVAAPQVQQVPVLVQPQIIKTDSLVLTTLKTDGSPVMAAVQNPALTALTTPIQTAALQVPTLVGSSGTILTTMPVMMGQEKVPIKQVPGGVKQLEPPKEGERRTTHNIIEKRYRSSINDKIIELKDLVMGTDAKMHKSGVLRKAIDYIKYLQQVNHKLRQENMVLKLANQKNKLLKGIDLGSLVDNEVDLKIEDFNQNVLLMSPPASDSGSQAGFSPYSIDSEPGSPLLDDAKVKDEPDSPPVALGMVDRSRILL

The test system of data set [1] is SREBP (HeLa, affinity purified, 59-68 kDa cluster of SREBP-1 and SREBP-2) (Homo sapiens). Briefly: EMSA. To be noted: purified native protein, protein details: HeLa S3 nuclei, SRE-1 DNA affinity purified, label: 32P.
Data set [2] has as its system SREBP (partially purified, rat liver nuclei) (Rattus norvegicus). Briefly: EMSA. The note with it: purified native protein, label: 32P.
Data set [3] relates to SREBP (HeLa, affinity purified, 59-68 kDa cluster of SREBP-1 and SREBP-2) (Homo sapiens). The data set can be described thus: footprint. To be noted: DNase I, purified native protein, protein details: HeLa S3 nuclei, SRE-1 DNA affinity purified, label: 32P.
For data set [4] the test system is unchanged. Briefly: binding assay. The note with it: purified native protein, protein details: HeLa S3 nuclei, SRE-1 DNA affinity purified.
Another data set addresses SREBP-1a (Homo sapiens) (UniProt P36956). The data set can be described thus: activity in cells. The note with it: CAT reporter stimulated, 293 cells; protein in cells; protein details: pCMV7 expression in 293 cells; only the site is given.
The mark [5] stands for this setting: also described as markedly reduced.

For part of these data: The exact form of at least one protein or probe is not confirmed. For part of these data: Negatives hold for the conditions tested.

With “AAAAGCACCCCACTGCAA (double strand) [Repeat 2 mutant P]”, the binding result in data set [1] and in data set [2] (setting [5]) was “no binding” throughout.

“AAAATAACCCCACTGCAA (double strand) [Repeat 2 mutant Q]”: the binding result in data set [1] and in data set [2] (setting [5]) was “no binding” each time.

Regarding “AAAATCAACCCACTGCAA (double strand) [Repeat 2 mutant S]”, the binding result in data set [1] and in data set [2] (setting [5]) was “no binding” in each case.

In the case of “AAAATCACCCAACTGCAA (double strand) [Repeat 2 mutant V]”, the binding result in data set [1] and in data set [2] (setting [5]) was “no binding” in each case.

Consider “AAAATCACCCCAATGCAA (double strand) [Repeat 2 mutant X (Probe *)]”, for which the binding result in data set [1], in data set [2] (setting [5]) and in data set [3] (SREBP footprint abolished) was “no binding” throughout.

Turning to “AAAATCACCCCACGGCAA (double strand) [Repeat 2 mutant Y]”, the binding result in data set [1] and in data set [2] was “binds” each time.

“AAAATCACCCCACTGAAA (double strand) [Repeat 2 mutant AA]”: the binding result in data set [1] and in data set [2] was “binds” each time.

Consider “AAAATCACCCCACTGCAA (double strand) [Repeat 2 wild-type human (Probe H, Plasmid K)]”, for which the binding result is given as “binds” in data set [1] (2 tandem Repeat 2+3 copies, stimulated by milk proteins); “binds” in data set [2] (2 tandem Repeat 2+3 copies, room temperature, 6 mM MgCl2); “binds” in data set [3] (SRE-1 in Repeat 2 protected); “binds” in data set [4] (UV crosslinking with BrdU probe, label: 32P). In addition, the “activity on this sequence” value with SREBP-1a (Homo sapiens) is “active”.

For the sequence “AAAATCACCCCACTGCAAACTCCTCCCCCTGC (double strand) [Repeat 2+3 single copy]”, the binding result in data set [1] (only one shifted band) is given as “binds”.

“AAAATCACCCCACTGCAT (double strand) [Repeat 2 mutant AC]”: the binding result in data set [2] was “binds”.

Take “AAAATCACCCCACTGCTA (double strand) [Repeat 2 mutant AB]”: the binding result in data set [2] is on record as “binds”.

Take “AAAATCACCCCACTTCAA (double strand) [Repeat 2 mutant Z]”: the binding result in data set [1] and in data set [2] was “binds” throughout.

“AAAATCACCCCATTGCAA (double strand) [Repeat 2 mouse wild-type (Probe M, Plasmid AE)]”: the binding result in data set [1] is “binds”.

Turning to “AAAATCACCCCTCTGCAA (double strand) [Repeat 2 mutant W]”, the binding result in data set [1] and in data set [2] (setting [5]) was “no binding” each time.

On to “AAAATCACCGCACTGCAA (double strand) [Repeat 2 mutant U]”, for which the binding result in data set [1] and in data set [2] (setting [5]) was “no binding” in each case.

As for “AAAATCACGCCACTGCAA (double strand) [Repeat 2 mutant T]”, the binding result in data set [1] (position 6 C to G) and in data set [2] (position 6 mutant) was “binds” each time.

Turning to “AAAATCTCCCCACTGCAA (double strand) [Repeat 2 mutant R]”, the binding result in data set [1] and in data set [2] (setting [5]) was “no binding” each time.

For “AAATTCACCCCACTGCAA (double strand) [Repeat 2 mutant O]”, the binding result in data set [1] and in data set [2] (setting [5]) was “no binding” throughout.

In the case of “AATATCACCCCACTGCAA (double strand) [Repeat 2 mutant N]”, the binding result in data set [1] and in data set [2] was “binds” throughout.

As for “ATAATCACCCCACTGCAA (double strand) [Repeat 2 mutant M]”, the binding result in data set [1] and in data set [2] was “binds” throughout.

As for “GATCATCACCCCACTG / GATCCAGTGGGGTGAT [Column C oligo, SRE-1 only]”, the binding result in data set [4] (DNA affinity column, eluted peak 0.6 M NaCl) was “binds”.

As for “TAAATCACCCCACTGCAA (double strand) [Repeat 2 mutant L]”, the binding result in data set [1] and in data set [2] was “binds” each time.

Consider “TCGACAAAAGATAAGATATGCAAACTCCTCCCCCTGCG / TCGACGCAGGGGGAGGAGTTTGCATATCTTATCTTTTG [Column A oligo, scrambled SRE-1 Repeat 2 + Repeat 3]”, for which the binding result in data set [4] (DNA affinity column flow-through, variant of Repeat 2+3 single copy) was “no binding”.

As for “TCGACAAAATCACCCCACTGTAAAATCACCCCACTGTG / TCGACACAGTGGGGTGATTTTACAGTGGGGTGATTTTG [Column B oligo, two tandem Repeat 2]”, the binding result in data set [4] (DNA affinity column, retained at 0.3 M, eluted 1 M KCl) is recorded as “binds”.
